{"source": "PubChem BioAssay AID1347076", "about": "(National Center for Advancing Translational Sciences (NCATS), 2019)", "note": "About 13,000 (3.2%) of roughly 400,000 compounds were called active. Inconclusive means that the source gave no clear call. Such entries were picked first, then a sample of the others. The call rests on the fitted dose curve; in most records, active means well fitted cell-killing curve with a large enough effect; inconclusive means small, poorly fitted or top-dose-only effect, or effect the other way; inactive means flat fitted curve, though single readings scatter. A potency beside an inconclusive call is a rough fit, not a confirmed value. On the % scale 0 is the no-effect control and ±100 the full control effect; potency means the concentration at half of the fitted maximal effect."}
{"assay": "qHTS assay for MDR1-selective chemotherapeutics: Primary screen using the drug-selected MDR subline cells KB-V1; further: nearly all actives have a fitted effect of over 60% in size", "details": "KB-V1 MDR cells viability, CellTiter-Glo, 72 h; activity change, negative = cytotoxicity: at 46.1 µM (top of the series)", "how_it_was_run": "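Luminescent ATP read-out (CellTiter-Glo, 10 min) measures survival of drug-selected KB-V1 MDR cells after 72 h, 37 degrees C compound exposure. Medium: phenol-red-free DMEM, 10% FBS. Values from fitted concentration-response curves.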"}
{"smiles": "Cn1c(=O)c2cc(C(=O)Nc3cccc(C#N)c3)sc2c2ccccc21", "Potency": "inconclusive: 29.1 µM [rising, single point]"}
{"smiles": "O=C(Nc1ccc(F)c(Cl)c1)Nc1csc2ccccc12", "Potency": "active: 11.6 µM"}
{"smiles": "COc1ccc(NC(=O)CN(C)CC(=O)N2CCCCCC2)cc1", "Potency": "inconclusive: 18.4 µM [cytotoxic, single point]"}
{"smiles": "N#CC1=C(N)Oc2c(ccc3ccccc23)C1c1cccs1", "note": "(stereo unspecified)", "Potency": "active: 5.01 µM"}
{"smiles": "Cc1cc(C)c2c(n1)sc1c(N3CCN(C)CC3)ncnc12", "Potency": "inconclusive: 29.1 µM [cytotoxic, single point]"}
{"smiles": "COc1cc2ccc(=O)oc2c(O)c1OCC=C(C)C", "Potency": "inactive"}
{"smiles": "CCN(C(=O)Cn1c(=O)n2nc(CCn3nc(C)cc3C)nc2c2ccccc21)c1cccc(C)c1", "Potency": "inconclusive: 29.1 µM [cytotoxic, single point]"}
{"smiles": "COC(=O)[C@]12CCCCC=C1N(Cc1ccccc1)C(=O)[C@H](CC(=O)N1CCN(C(=O)c3ccco3)CC1)C2", "Potency": "inconclusive: 5.17 µM [cytotoxic, partial curve]"}
{"smiles": "CCCC/C(O)=C1\\C(=O)CC(C)(C)CC1=NCCCCCC(=O)O", "Potency": "inactive"}
{"smiles": "O=C(COc1ccc(Cl)cc1Cl)NN=C1CCCCC1", "Potency": "inconclusive: 29.1 µM [rising, single point]"}
{"smiles": "O=c1c2ccccc2cnn1-c1ccc2ccccc2c1", "Potency": "inconclusive: 29.1 µM [cytotoxic, single point]"}
{"smiles": "CN(Cc1cccnc1)Cc1cn(C)nc1-c1cccc(Cl)c1", "Potency": "inconclusive: 2.31 µM [cytotoxic, partial curve, poor fit]"}
{"smiles": "COc1ccc(CCNC(=O)CSCc2nc(-c3cccc(C)c3)oc2C)cc1OC", "Potency": "inconclusive: 5.17 µM [cytotoxic, partial curve]"}
{"smiles": "CCN(CC)c1ncnc2c1cnn2Cc1ccc(C)cc1", "Potency": "inconclusive: 14.6 µM [cytotoxic, partial curve, poor fit]"}
{"smiles": "COc1ccc(C(CC(=O)Nc2nccs2)n2cccc2)cc1", "note": "(stereo unspecified)", "Potency": "inconclusive: 18.4 µM [cytotoxic, single point]"}
{"smiles": "CN(C)CCNC(=O)c1ccc(COc2ccc(Cl)cc2Cl)cc1", "Potency": "active: 18.4 µM"}
{"smiles": "Cc1ccsc1C1NC(=O)c2c(sc3c2CCN(C)C3)N1", "note": "(stereo unspecified)", "Potency": "inconclusive: 0.651 µM [rising, full curve, poor fit]"}
{"smiles": "CCN(CC)CCN1C2=C(C(=O)CC(C)(C)C2)C(c2cccc(F)c2)C2=C1CC(C)(C)CC2=O", "Potency": "inconclusive: 4.61 µM [cytotoxic, full curve]"}
{"smiles": "Cc1cc(Br)ccc1NC(=O)CCNS(=O)(=O)c1cccc2nonc12", "Potency": "inactive"}
{"smiles": "CCOC(=O)C1CCN(C(=O)c2sc3nc(C)nc(N4CCC(C)CC4)c3c2C)CC1", "Potency": "inactive"}
{"smiles": "O=C(Cn1ncc2c3ccccc3n(Cc3ccccc3)c2c1=O)NCCCN1CCCC1", "Potency": "inconclusive: 2.91 µM [rising, full curve, poor fit]"}
{"smiles": "Cc1ccc([C@H]2N[C@]3(CCCN(Cc4ccc(F)cc4)C3=O)[C@H]3C(=O)N(Cc4ccccc4)C(=O)[C@@H]23)cc1", "Potency": "inactive"}
{"smiles": "Cc1onc(-c2ccccc2Cl)c1C(=O)Oc1cc(N)n(S(=O)(=O)c2ccc(F)cc2)n1", "Potency": "inactive"}
{"smiles": "O=S(=O)(Nn1cnnc1)c1ccc(F)cc1", "Potency": "inactive"}
{"smiles": "Cc1cc(C)c(S(=O)(=O)N2CCCCC2CCNC(=O)C(=O)NCCN2CCOCC2)c(C)c1", "note": "(stereo unspecified)", "Potency": "active: 3.26 µM"}
{"smiles": "CCOc1ccc2nc(N3CCC(C(=O)NCCCN4CCOCC4)CC3)sc2c1", "Potency": "inactive"}
{"smiles": "Cn1c2ccccc2c2n[nH]c(=S)nc21", "Potency": "active: 6.51 µM"}
{"smiles": "CN(C)c1ccc(C2NC(=O)c3ccccc3N2)cc1", "note": "(stereo unspecified)", "Potency": "active: 13 µM"}
{"smiles": "O=C(Nc1ccc(Br)cc1F)c1cc2nc(-c3ccco3)cc(C(F)(F)Cl)n2n1", "Potency": "inconclusive: 29.1 µM [rising, single point]"}
{"smiles": "Cc1c(Cl)c([N+](=O)[O-])nn1Cc1ccc(C(=O)Nc2ccc(Cl)cn2)o1", "Potency": "active: 3.66 µM"}
{"smiles": "Cc1ccccc1NC(=O)C(Cc1ccccc1)n1cccc1", "note": "(stereo unspecified)", "activity change, negative = cytotoxicity": "inconclusive: -48.7% [cytotoxic]"}
{"smiles": "Cc1ccc(NC(=O)CCCn2c(=S)[nH]c3ccsc3c2=O)cc1C", "Potency": "inactive"}
{"smiles": "COc1ccc(/C=C(/NC(=O)c2ccc(OC)cc2)C(=O)NCCc2c[nH]c3ccccc23)cc1", "Potency": "inconclusive: 23.1 µM [cytotoxic, single point]"}
{"smiles": "CC1CCc2nc(/C(C#N)=C/c3cccnc3)sc2C1", "note": "(stereo unspecified)", "Potency": "inconclusive: 14.6 µM [cytotoxic, partial curve]"}
{"smiles": "CCc1ccc(NC(=S)N(Cc2ccc(Cl)cc2)Cc2ccc(C(=O)O)cc2)cc1", "Potency": "inactive"}
{"smiles": "CC(=O)Nc1cccc(C(=O)/C=C/c2cccs2)c1", "Potency": "inconclusive: 18.4 µM [cytotoxic, single point]"}
{"smiles": "Cc1[nH]n(-c2ccccc2)c(=O)c1/C=N/NC(=O)c1ccccc1F", "Potency": "inactive"}
{"smiles": "CCn1c2ccccc2c2nnc(SCC(=O)c3ccccc3)nc21", "Potency": "inconclusive: 20.6 µM [cytotoxic, partial curve]"}
{"smiles": "C/C=C/NNC(=O)Cc1ccc(OC)cc1", "Potency": "inconclusive: 29.1 µM [cytotoxic, single point]"}
{"smiles": "Cn1c(=S)[nH]c2ccccc21", "Potency": "inconclusive: 18.4 µM [cytotoxic, single point]"}
{"smiles": "COc1ccc2c(c1)CC(C(=O)Nc1ccc(OC)cc1OC)CO2", "note": "(stereo unspecified)", "Potency": "inconclusive: 5.8 µM [rising, full curve, poor fit]"}
{"smiles": "CCn1c(=O)c2sccc2n(CC(=O)NCCC2=CCCCC2)c1=O", "Potency": "inconclusive: 14.6 µM [cytotoxic, partial curve]"}
{"smiles": "CN(C)c1ccc(NC(=O)Nc2ccc3snnc3c2)cc1", "Potency": "inactive"}
{"smiles": "COc1ccc(CNC(=O)c2ccc(N3CCC4(CC3)CC(c3ccc(Cl)cc3)=NO4)c(NC(=O)Cc3ccc(F)cc3)c2)cc1", "Potency": "inconclusive: 29.1 µM [rising, single point]"}
{"smiles": "CCOC(=O)c1ccc(N2C(=O)c3n[nH]c(-c4cccs4)c3C2c2ccc(OC)cc2OC)cc1", "note": "(stereo unspecified)", "Potency": "active: 25.9 µM"}
{"smiles": "O=C(NCC1CC1)C1Cc2c(-c3ccc4c(c3)OCO4)ccnc2O1", "note": "(stereo unspecified)", "Potency": "inconclusive: 29.1 µM [cytotoxic, single point]"}
{"smiles": "CSc1nc(-c2cccs2)c(C#N)c(=O)[nH]1", "Potency": "inconclusive: 1.46 µM [rising, full curve]"}
{"smiles": "O=C(Nc1cccc(NC(=O)c2cccs2)c1)c1ccc2c(c1)OCCO2", "Potency": "inactive"}
{"smiles": "COc1cccc(C(=O)NCCNC(=O)c2ccco2)c1", "Potency": "inactive"}
{"smiles": "COCCN(C(=O)COC(=O)CSc1ccc2ccccc2c1)c1c(N)n(Cc2ccccc2)c(=O)[nH]c1=O", "Potency": "inactive"}
{"smiles": "CC(C)c1ccc(C2=NC(c3ccncc3)=Nc3ccc(F)cc3N2)cc1", "Potency": "inactive"}
{"smiles": "COCCCNC(=O)c1cccc2c(-c3ccnn3C)coc12", "Potency": "inactive"}
{"smiles": "Cc1ccc(C)c(NC(=O)c2cc(=O)c3ccccc3o2)c1", "Potency": "active: 14.6 µM"}
{"smiles": "COC/C=C/C1=CC2=CC(=O)C(C)(OC(=O)C3CCCC3)C(=O)C2=CO1", "note": "(stereo unspecified)", "Potency": "inconclusive: 0.0092 µM [cytotoxic, full curve]"}
{"smiles": "Clc1ccc2nc(-c3ccco3)c(Cc3ccsc3)n2c1", "Potency": "inactive"}
{"smiles": "Cn1c(=O)c2c(nc(NCc3ccccc3)n2C)n(C)c1=O", "Potency": "inconclusive: 18.4 µM [cytotoxic, single point]"}
{"smiles": "COC(=O)C(C(=O)OC)c1ccccc1CNS(=O)(=O)c1ccc(C)cc1", "Potency": "inconclusive: 18.4 µM [cytotoxic, single point]"}
{"smiles": "Fc1ccc(C(CCNCc2cccs2)c2ccco2)cc1", "note": "(stereo unspecified)", "Potency": "inactive"}
{"smiles": "CC(=O)c1ccc(N2CCN(C(=S)Nc3cccc(Cl)c3)CC2)cc1", "Potency": "active: 23.1 µM"}
{"smiles": "CNC(=O)c1ccc2nc(Cc3ccccc3)oc2c1", "Potency": "inactive"}
{"smiles": "COc1ccc(NS(=O)(=O)c2cc3c4c(c2)CCN4C(=O)CC3)c(OC)c1", "Potency": "inconclusive: 29.1 µM [cytotoxic, single point]"}
{"smiles": "Cc1cc(/C=C2/C(=O)NN(c3ccccc3)C2=O)c(C)n1-c1ccc(O)cc1", "Potency": "inactive"}
{"smiles": "CC1CCN(C(=O)CSc2nc3ccccc3s2)CC1", "Potency": "active: 14.6 µM"}
{"smiles": "COC(=O)c1ccccc1NC(=O)N1CCc2ccc(NC(=O)c3ccccn3)cc2C1", "Potency": "inconclusive: 25.9 µM [cytotoxic, partial curve, poor fit]"}
{"smiles": "C=CCNc1nc(-c2ccc(OC)cc2OC)cs1", "Potency": "inconclusive: 18.4 µM [cytotoxic, single point]"}
{"smiles": "O=C(COC(=O)c1cncc(Br)c1)NC1CCCC1", "Potency": "inconclusive: 29.1 µM [rising, single point]"}
{"smiles": "CCCn1cc(S(=O)(=O)c2ccc(CC)cc2)c(=O)c2cc(F)c(N3CCN(C)CC3)cc21", "Potency": "inactive"}
{"smiles": "CCOC(=O)N1CCC(NC(=O)c2ccc3c(c2)N(Cc2ccc(Cl)cc2)C(=O)c2ccccc2S3(=O)=O)CC1", "Potency": "inactive"}
{"smiles": "CC(C)(C)C(=O)Cn1c(=O)n(CC2CCCO2)c(=O)c2ccccc21", "note": "(stereo unspecified)", "Potency": "inconclusive: 14.6 µM [cytotoxic, single point]"}
{"smiles": "C=CCOC(=O)/C(=C/c1cccc2ccccc12)NC(=O)c1ccccc1", "Potency": "active: 8.2 µM"}
{"smiles": "CCOC(=O)c1csc(NC(=O)CCS(=O)(=O)c2ccc(Cl)cc2)n1", "Potency": "inactive"}
{"smiles": "O=C(NCc1ccccc1)Nc1cccn(Cc2ccccc2F)c1=O", "Potency": "active: 10.3 µM"}
{"smiles": "CSc1ccccc1NC(=O)CN1CCCCC1C", "note": "(stereo unspecified)", "Potency": "inactive"}
{"smiles": "COc1ccccc1NC(=O)CCN1CCN(Cc2ccccc2)CC1", "Potency": "inconclusive: 7.31 µM [cytotoxic, partial curve]"}
{"smiles": "COc1ccccc1CNS(=O)(=O)c1cc(-c2cc(C)no2)ccc1C(C)C", "Potency": "inconclusive: 6.51 µM [cytotoxic, partial curve]"}
{"smiles": "Cc1ccc2c(C)c(C(=O)N(Cc3ccncc3)CC3CCCO3)oc2c1C", "note": "(stereo unspecified)", "Potency": "inconclusive: 18.4 µM [cytotoxic, partial curve, poor fit]"}
